Measurements: patent publication US20260109763A1, “ANTI-PILRA ANTIBODIES, USES THEREOF, AND RELATED METHODS AND REAGENTS” (DENALI THERAPEUTICS INC., priority 2021, published 2026)

The chains behind the UniProt entries cited, without tags or fusion partners. Where a name states a change or a piece, a line headed by the entry shows the natural chain unless it says otherwise.
UniProt Q9UKJ1: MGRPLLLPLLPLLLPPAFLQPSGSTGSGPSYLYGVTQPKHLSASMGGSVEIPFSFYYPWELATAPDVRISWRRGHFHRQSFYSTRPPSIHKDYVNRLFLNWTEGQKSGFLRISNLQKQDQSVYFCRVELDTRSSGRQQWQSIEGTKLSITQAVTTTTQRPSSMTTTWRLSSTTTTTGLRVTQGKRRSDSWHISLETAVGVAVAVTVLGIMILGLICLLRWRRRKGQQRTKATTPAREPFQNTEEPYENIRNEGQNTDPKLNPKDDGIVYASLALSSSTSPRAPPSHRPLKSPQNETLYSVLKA

Target: human PILRA on Wildtype iMicroglia (Homo sapiens) (UniProt Q9UKJ1)
Assay: confocal imaging of cell binding on wild-type iMicroglia, 100 nM biotinylated antibody, Alexa Fluor 488 streptavidin, fold over streptavidin-only wells

Row | binding | Binder
1 | binds | Anti-PILRA antibody clone 1 (antibody, V domains shown) VH: EVQLVESGGGLVQPGRSLRLSCAVSGFTFDDYAMHWVRQAPGKGLEWVSGFSWNSGSIGYPDSVKGRFTISRDNAKNSLYLQMNSLRAEDTAFYYCAKDKSISAAGRFDYWGQGTLVTVSS VL: DIQMTQSPSSLSASVGDRVTITCQASRRINNYLNWYQQKPGKAPKLLIYDASNLETGVPSRFTGSGSGTDFTLTISSLQPEDIATYYCQQYDNLPLTFGGGTKIKIK
2 | binds | Anti-PILRA antibody clone 2 (antibody, human IgG1, kappa, L234A L235A, V domains shown) VH: EVQLVESGGGLVQPGRSLRLSCAVSGFTFDDYAMHWVRQAPGKGLEWVSGFSWNSGSIGYPDSVKGRFTISRDNAKNSLYLQMNSLRAEDTAFYYCAKDKSISAAGRFDYWGQGTLVTVSS VL: DIQMTQSPSSLSASVGDRVTITCQASRRINNYLNWYQQKPGKAPKLLIYDASNLETGVPSRFTGSGSGTDFTLTISSLQPEDIATYYCQQYDNLPLTFGGGTKVEIKR

No constants are given. Whether binding was seen depends on the method and setting. Binding calls can cover weak binding; strength is not graded here.
